Measured values reported in the supplement of paper PMC10849652.
Some of the results follow.

Chains of the proteins cited; added tags and fusions are not shown. Lines headed by an entry give the natural chain unless they say otherwise; changes in a name come on top.
UniProt Q96S15: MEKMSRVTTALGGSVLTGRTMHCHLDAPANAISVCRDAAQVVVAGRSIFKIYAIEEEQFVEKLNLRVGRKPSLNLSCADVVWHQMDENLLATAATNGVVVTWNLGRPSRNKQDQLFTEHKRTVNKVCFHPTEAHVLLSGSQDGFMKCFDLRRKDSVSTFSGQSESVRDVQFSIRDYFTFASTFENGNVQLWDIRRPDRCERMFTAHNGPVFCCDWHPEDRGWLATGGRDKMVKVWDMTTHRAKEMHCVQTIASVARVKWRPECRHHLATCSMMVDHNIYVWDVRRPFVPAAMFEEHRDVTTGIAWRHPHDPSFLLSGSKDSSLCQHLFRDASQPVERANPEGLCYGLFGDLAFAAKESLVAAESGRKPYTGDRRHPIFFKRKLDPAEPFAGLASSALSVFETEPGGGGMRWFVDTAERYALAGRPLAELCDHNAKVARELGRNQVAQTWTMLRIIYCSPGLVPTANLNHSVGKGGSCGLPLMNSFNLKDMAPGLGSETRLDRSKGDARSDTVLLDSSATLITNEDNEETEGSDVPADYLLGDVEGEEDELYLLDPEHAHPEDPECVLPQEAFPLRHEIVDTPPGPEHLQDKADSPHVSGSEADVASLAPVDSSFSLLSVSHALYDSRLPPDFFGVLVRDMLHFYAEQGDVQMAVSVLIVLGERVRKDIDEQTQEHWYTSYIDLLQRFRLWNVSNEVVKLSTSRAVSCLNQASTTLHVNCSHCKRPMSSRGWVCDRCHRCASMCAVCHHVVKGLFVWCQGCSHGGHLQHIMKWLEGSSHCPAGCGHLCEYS
UniProt Q15906, whole entry, looked up: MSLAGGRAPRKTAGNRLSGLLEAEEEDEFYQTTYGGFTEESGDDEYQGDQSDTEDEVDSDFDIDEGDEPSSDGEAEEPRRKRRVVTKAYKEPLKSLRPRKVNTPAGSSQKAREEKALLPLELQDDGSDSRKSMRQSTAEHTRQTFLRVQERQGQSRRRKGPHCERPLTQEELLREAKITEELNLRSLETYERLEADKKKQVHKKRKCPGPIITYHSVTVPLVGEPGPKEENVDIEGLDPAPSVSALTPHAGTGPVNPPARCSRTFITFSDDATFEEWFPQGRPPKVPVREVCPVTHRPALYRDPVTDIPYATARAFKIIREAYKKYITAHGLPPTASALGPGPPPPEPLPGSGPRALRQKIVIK
UniProt Q15007: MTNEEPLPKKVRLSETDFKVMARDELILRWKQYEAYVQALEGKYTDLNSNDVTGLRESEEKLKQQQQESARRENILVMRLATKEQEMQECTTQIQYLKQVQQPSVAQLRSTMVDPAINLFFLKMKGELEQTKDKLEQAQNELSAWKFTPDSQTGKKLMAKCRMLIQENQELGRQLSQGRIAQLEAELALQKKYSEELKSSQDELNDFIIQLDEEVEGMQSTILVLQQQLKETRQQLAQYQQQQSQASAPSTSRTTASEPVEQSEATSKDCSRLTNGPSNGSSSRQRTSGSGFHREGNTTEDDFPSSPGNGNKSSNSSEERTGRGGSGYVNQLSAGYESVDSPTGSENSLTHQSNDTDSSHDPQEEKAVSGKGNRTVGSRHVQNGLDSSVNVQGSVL
UniProt Q502W6: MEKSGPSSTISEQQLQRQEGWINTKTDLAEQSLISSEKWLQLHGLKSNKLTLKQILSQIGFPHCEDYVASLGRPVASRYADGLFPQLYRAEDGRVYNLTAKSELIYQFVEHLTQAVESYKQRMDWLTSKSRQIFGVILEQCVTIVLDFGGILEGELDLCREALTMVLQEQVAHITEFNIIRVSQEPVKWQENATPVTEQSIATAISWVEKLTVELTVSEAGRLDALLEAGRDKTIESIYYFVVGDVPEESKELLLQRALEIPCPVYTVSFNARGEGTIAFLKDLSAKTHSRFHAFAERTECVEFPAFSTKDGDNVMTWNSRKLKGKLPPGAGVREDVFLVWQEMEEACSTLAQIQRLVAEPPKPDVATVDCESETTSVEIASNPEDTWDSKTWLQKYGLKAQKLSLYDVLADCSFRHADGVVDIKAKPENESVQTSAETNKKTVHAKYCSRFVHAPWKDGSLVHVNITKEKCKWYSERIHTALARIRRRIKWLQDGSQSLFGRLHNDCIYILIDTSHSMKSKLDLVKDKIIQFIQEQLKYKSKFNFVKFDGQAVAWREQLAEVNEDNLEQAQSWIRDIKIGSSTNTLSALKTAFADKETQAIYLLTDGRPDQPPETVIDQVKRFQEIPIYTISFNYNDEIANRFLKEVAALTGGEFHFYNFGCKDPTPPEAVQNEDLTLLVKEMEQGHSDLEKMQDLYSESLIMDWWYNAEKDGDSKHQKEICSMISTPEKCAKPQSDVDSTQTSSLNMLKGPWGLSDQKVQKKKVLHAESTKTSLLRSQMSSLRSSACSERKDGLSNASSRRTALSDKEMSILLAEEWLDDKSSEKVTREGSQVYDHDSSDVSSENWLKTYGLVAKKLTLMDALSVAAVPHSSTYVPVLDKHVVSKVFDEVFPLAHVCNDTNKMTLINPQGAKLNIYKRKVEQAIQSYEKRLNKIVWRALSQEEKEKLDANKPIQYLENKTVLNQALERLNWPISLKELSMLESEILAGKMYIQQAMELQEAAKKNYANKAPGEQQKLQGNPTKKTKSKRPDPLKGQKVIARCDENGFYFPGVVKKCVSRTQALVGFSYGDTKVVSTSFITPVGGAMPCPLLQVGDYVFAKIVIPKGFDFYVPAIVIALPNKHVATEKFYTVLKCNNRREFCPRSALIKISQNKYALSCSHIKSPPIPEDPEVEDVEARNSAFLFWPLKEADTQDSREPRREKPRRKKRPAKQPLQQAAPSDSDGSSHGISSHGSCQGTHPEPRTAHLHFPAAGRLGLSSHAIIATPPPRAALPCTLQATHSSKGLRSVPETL
UniProt Q96AJ9: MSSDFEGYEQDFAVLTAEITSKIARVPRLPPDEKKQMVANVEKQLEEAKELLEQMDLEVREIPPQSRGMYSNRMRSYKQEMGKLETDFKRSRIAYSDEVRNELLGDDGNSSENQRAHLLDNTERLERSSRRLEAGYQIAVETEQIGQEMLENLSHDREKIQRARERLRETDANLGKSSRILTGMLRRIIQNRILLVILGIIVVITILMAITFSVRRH
UniProt Q9H269: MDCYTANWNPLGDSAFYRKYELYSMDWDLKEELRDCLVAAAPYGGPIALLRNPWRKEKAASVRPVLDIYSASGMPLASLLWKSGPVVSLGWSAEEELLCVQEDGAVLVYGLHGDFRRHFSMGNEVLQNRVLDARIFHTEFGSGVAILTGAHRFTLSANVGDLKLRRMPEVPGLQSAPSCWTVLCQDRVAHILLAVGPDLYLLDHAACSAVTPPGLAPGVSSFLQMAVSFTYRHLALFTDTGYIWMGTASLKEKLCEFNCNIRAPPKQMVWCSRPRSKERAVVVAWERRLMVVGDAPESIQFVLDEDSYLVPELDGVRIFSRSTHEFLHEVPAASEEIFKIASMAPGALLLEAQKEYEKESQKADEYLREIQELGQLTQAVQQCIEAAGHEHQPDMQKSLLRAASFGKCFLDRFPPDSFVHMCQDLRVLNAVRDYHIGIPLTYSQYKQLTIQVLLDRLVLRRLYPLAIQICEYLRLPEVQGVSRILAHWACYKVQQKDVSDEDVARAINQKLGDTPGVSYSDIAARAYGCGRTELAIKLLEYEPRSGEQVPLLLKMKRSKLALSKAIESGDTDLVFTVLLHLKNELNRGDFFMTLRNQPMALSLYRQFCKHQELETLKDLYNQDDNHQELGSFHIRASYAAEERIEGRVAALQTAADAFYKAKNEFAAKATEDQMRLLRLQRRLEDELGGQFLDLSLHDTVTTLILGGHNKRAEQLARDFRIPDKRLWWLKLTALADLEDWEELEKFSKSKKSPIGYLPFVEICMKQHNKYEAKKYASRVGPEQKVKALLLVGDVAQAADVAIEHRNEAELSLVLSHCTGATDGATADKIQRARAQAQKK
UniProt Q5VIR6: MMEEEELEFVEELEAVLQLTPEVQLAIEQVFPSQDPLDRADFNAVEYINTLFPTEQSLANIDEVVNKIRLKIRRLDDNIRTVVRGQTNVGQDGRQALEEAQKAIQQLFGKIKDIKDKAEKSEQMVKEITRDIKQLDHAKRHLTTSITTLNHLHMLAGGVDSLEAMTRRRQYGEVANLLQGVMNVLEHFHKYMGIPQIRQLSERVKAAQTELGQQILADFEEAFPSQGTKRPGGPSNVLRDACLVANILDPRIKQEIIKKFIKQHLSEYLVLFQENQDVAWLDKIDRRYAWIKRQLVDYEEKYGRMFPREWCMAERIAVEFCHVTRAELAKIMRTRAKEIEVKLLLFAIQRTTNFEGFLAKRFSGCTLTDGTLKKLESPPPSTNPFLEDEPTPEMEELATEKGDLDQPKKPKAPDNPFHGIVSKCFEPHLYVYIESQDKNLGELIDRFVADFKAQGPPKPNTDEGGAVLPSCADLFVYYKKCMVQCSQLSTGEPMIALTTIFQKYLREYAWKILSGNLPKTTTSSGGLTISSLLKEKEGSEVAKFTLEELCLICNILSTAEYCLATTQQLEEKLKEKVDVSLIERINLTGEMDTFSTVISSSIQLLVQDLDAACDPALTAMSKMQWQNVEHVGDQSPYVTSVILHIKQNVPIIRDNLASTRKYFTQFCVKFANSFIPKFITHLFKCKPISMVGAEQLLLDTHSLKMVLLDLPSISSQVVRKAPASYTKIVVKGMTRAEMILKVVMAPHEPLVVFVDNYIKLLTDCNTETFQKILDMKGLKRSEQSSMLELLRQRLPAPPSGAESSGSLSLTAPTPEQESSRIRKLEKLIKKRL
UniProt Q9UEU0: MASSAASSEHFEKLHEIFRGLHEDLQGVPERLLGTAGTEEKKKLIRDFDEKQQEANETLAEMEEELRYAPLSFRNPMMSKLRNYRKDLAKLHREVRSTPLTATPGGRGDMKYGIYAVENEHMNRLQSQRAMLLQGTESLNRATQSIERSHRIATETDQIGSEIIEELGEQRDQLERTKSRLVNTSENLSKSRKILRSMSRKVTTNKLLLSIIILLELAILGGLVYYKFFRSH
UniProt O75554: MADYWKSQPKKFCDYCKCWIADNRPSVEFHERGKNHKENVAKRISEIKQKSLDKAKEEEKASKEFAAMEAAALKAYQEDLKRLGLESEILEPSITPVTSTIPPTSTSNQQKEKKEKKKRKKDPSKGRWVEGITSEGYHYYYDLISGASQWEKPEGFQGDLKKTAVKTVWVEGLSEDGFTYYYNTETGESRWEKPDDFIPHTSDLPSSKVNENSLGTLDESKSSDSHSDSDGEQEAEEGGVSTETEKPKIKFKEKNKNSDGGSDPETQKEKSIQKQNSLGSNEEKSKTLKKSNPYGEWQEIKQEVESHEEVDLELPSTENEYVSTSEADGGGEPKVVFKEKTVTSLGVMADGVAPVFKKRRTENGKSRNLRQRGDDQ
UniProt A4D1P6: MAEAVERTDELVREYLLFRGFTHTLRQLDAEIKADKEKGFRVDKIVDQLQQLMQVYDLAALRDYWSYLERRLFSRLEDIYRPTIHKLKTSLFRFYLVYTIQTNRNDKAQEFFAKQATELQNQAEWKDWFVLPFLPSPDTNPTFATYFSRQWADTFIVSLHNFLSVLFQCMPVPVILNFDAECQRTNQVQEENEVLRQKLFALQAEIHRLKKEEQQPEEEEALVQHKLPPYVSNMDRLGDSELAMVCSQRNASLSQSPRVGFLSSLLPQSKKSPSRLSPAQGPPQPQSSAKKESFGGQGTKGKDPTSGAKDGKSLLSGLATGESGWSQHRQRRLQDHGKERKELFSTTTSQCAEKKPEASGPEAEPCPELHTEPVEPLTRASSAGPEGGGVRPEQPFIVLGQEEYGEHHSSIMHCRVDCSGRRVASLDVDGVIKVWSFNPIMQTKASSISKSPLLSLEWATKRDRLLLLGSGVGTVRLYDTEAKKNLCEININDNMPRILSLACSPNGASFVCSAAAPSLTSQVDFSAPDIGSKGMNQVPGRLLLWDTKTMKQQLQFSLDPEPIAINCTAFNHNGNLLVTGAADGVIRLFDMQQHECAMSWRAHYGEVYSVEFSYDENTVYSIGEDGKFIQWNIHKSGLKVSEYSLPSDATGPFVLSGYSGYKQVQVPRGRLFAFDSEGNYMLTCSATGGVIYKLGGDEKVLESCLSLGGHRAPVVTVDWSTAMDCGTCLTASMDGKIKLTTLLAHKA
UniProt Q5JSD2: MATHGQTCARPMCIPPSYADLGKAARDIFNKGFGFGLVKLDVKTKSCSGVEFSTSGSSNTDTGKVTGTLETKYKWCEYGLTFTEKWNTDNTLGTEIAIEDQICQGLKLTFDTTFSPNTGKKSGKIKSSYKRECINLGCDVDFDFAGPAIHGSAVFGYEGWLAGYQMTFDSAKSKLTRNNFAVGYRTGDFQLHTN

What was measured:
Assay in all cases: log2 fold change, soluble protein after heating vs DMSO (PISA); higher = thermal stabilisation; K562 cells, 10 uM, 30 min; active = over 0.2 and 3.5 SD of the protein, either way, in both replicates (recomputed)
[1] = compound: CC[C@@H]1C(=O)N(C)c2cnc(Nc3ccc(C(=O)NC4CCN(C)CC4)cc3OC)nc2N1C1CCCC1
Summary of the method: (§1)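 K562 cells at 2×10^6 cells/mL were treated with 10 μM compound for 30 min. Aliquots were heated for 3 min across 48°C-58°C, pooled, and extracted in PBS with 0.5% NP-40 at 4°C; soluble protein was the supernatant after 21,000xg for 90 min. Soluble protein was quantified by TMTpro 16plex LC-MS/MS with channel sums equalised, and reported as log2 fold change in thermal stability against DMSO controls, with values from duplicates.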

volasertib = compound: CC[C@@H]1C(=O)N(C)c2cnc(Nc3ccc(C(=O)N[C@H]4CC[C@H](N5CCN(CC6CC6)CC5)CC4)cc3OC)nc2N1C(C)C [volasertib]
Summary of the method: as §1

[2] = compound: CCn1cc(-c2ccnc3[nH]c(-c4cccc(CN(C)C)c4)cc23)c(-c2ccc(NC(=O)N(C)C)cc2)n1
Summary of the method: as §1

rosiglitazone = compound: CN(CCOC1=CC=C(C=C1)C[C@H]2C(=O)NC(=O)S2)C3=CC=CC=N3 (racemic) [rosiglitazone]
Summary of the method: as §1

[3] = compound: CN1CCC(CNc2ccc3ncc(-c4cccc(OC(F)(F)F)c4)n3n2)CC1
Summary of the method: as §1

alvocidib = compound: CN1CC[C@H](c2c(O)cc(O)c3c(=O)cc(-c4ccccc4Cl)oc23)[C@H](O)C1 [alvocidib]
Summary of the method: as §1

rucaparib = compound: CNCc1ccc(-c2[nH]c3cc(F)cc4c3c2CCNC4=O)cc1 [rucaparib]
Summary of the method: as §1

encorafenib = compound: COC(=O)N[C@@H](C)CNc1nccc(-c2cn(C(C)C)nc2-c2cc(Cl)cc(NS(C)(=O)=O)c2F)n1 [encorafenib]
Summary of the method: as §1

epoxomicin = compound: CC[C@H](C)[C@@H](C(=O)N[C@@H]([C@@H](C)O)C(=O)N[C@@H](CC(C)C)C(=O)[C@]1(CO1)C)NC(=O)[C@H]([C@@H](C)CC)N(C)C(=O)C [epoxomicin]
Summary of the method: as §1

[4] = compound: CCn1c(C(=O)N(C2CC2)C2CC2)cc2c3c(ncn3C)c(Nc3cc(C)n(C)n3)nc21
Summary of the method: as §1

sotrastaurin = compound: CN1CCN(c2nc(C3=C(c4c[nH]c5ccccc45)C(=O)NC3=O)c3ccccc3n2)CC1 [sotrastaurin]
Summary of the method: as §1

Tubastatin A = compound: CN1CCc2c(c3ccccc3n2Cc2ccc(C(=O)NO)cc2)C1 [Tubastatin A]
Summary of the method: as §1

[5] = compound: CNC(=O)C1=CC=CC=C1NC2=NC(=NC=C2Cl)NC3=C(C=C(C=C3)N4CCOCC4)OC
Summary of the method: as §1

[6] = compound: CC[C@H](C)N1C=C(C2=C(C=C(C=C21)C3=CN=C(C=C3)N4CCNCC4)C(=O)NCC5=C(C=C(NC5=O)C)C)C
Summary of the method: as §1

[7] = compound: CN(C)CC(=O)Nc1ccc2[nH]c(=O)c3ccccc3c2c1
Summary of the method: as §1

[8] = compound: CN1C2=C(C3=C1C(=O)N(N=C3)CC4=CC(=CC=C4)N)SC(=C2)S(=O)C
Summary of the method: as §1

saracatinib = compound: CN1CCN(CCOc2cc(OC3CCOCC3)c3c(Nc4c(Cl)ccc5c4OCO5)ncnc3c2)CC1 [saracatinib]
Summary of the method: as §1

defactinib = compound: CNC(=O)c1ccc(Nc2ncc(C(F)(F)F)c(NCc3nccnc3N(C)S(C)(=O)=O)n2)cc1 [defactinib]
Summary of the method: as §1

[9] = compound: CNc1nc(-c2ccc3c(N)n[nH]c3c2)cc(N2C[C@@H](C(=O)NC3CCCCC3)CC[C@H]2C)n1
Summary of the method: as §1

[10] = compound: COC(=O)[C@H](CCSC)NC(=O)C1=C(C=C(C=C1)NC[C@H](CS)N)C2=CC=CC=C2
Summary of the method: as §1

| Target | log2 fold change [1] | log2 fold change (volasertib) | log2 fold change [2] | log2 fold change (rosiglitazone) | log2 fold change [3] | log2 fold change (alvocidib) | log2 fold change (rucaparib) | log2 fold change (encorafenib) | log2 fold change (epoxomicin) | log2 fold change [4] | log2 fold change (sotrastaurin) | log2 fold change (Tubastatin A) | log2 fold change [5] | log2 fold change [6] | log2 fold change [7] | log2 fold change [8] | log2 fold change (saracatinib) | log2 fold change (defactinib) | log2 fold change [9] | log2 fold change [10] |
| --- | --- | --- | --- | --- | --- | --- | --- | --- | --- | --- | --- | --- | --- | --- | --- | --- | --- | --- | --- | --- |
| WIPI2 isoform 6 (UniProt Q9Y4P8) | inactive: -0.188 | inactive: -0.077 | inactive: 0.132 | inactive: 0.153 | inactive: -0.018 | inactive: -0.106 | inactive: -0.035 | inactive: -0.124 | – | – | – | – | – | – | – | – | – | – | – | – |
| WDR24 (UniProt Q96S15) | inactive: -0.067 | inactive: -0.049 | inactive: -0.05 | – | inactive: -0.015 | inactive: 0.092 | inactive: 0.482 | inactive: -0.187 | inactive: 0.145 | inactive: -0.02 | inactive: 0.082 | inactive: 0.015 | inactive: -0.031 | – | – | – | – | – | – | – |
| VPS72 isoform 2 (UniProt Q15906) | inactive: -0.261 | inactive: 0.135 | – | – | – | – | inactive: 0.28 | inactive: -0.053 | inactive: -0.107 | – | inactive: 0.004 | inactive: -0.011 | inactive: -0.021 | inactive: -0.072 | inactive: -0.052 | inactive: 0.043 | inactive: -0.094 | inactive: -0.016 | inactive: -0.082 | inactive: -0.019 |
| WDCP (UniProt Q9H6R7) | inactive: -0.196 | active: -0.477 | inactive: 0.071 | – | inactive: -0.019 | – | inactive: 0.14 | inactive: 0.043 | inactive: 0.127 | – | inactive: -0.034 | inactive: -0.032 | inactive: 0 | inactive: 0.102 | inactive: 0.057 | inactive: 0.124 | inactive: -0.039 | inactive: -0.016 | inactive: -0.02 | inactive: -0.006 |
| WTAP (UniProt Q15007) | inactive: -0.3 | inactive: -0.115 | – | – | – | – | inactive: 0.212 | inactive: 0.092 | – | inactive: -0.119 | inactive: 0.028 | – | inactive: -0.099 | – | inactive: 0.028 | inactive: 0.261 | inactive: 0.072 | inactive: -0.074 | inactive: -0.152 | inactive: -0.019 |
| VPS35, A0A1W2PP10 | inactive: -0.15 | inactive: -0.087 | – | inactive: -0.078 | – | – | inactive: 0.03 | inactive: -0.038 | inactive: 0.176 | – | – | inactive: 0.189 | – | inactive: 0.039 | inactive: -0.138 | – | – | inactive: -0.21 | – | inactive: 0.03 |
| VWA3B isoform 6 (UniProt Q502W6) | inactive: -0.038 | active: -0.631 | inactive: -0.125 | – | inactive: -0.234 | – | inactive: -0.448 | inactive: 0.095 | inactive: -0.262 | – | – | inactive: -0.018 | inactive: 0.017 | inactive: -0.203 | inactive: -0.007 | inactive: -0.023 | inactive: 0.042 | inactive: 0.039 | inactive: -0.076 | inactive: -0.04 |
| VTI1A (UniProt Q96AJ9) | inactive: 0.051 | inactive: -0.002 | inactive: 0.068 | – | active: -0.219 | – | inactive: -0.058 | inactive: -0.001 | inactive: 0.006 | – | inactive: 0.027 | inactive: -0.028 | inactive: 0.095 | inactive: -0.026 | inactive: 0.028 | inactive: 0.01 | inactive: 0.101 | inactive: -0.03 | inactive: -0.042 | inactive: 0.07 |
| VPS16 (UniProt Q9H269) | inactive: -0.244 | active: -0.671 | inactive: -0.072 | – | inactive: -0.316 | – | inactive: -0.049 | inactive: 0.196 | inactive: 0.045 | – | inactive: -0.171 | inactive: -0.001 | inactive: -0.071 | inactive: 0.042 | inactive: 0.083 | inactive: 0.026 | inactive: 0.026 | inactive: -0.042 | inactive: -0.054 | inactive: -0.022 |
| WARS1 (UniProt G3V5U1) | inactive: -0.03 | – | – | – | – | – | inactive: 0.228 | inactive: -0.451 | inactive: -0.237 | – | inactive: 0.315 | – | – | – | – | – | – | – | – | – |
| VEGFA (UniProt H0YBI8) | inactive: 0.442 | inactive: 0.212 | – | inactive: -0.057 | – | – | inactive: -0.027 | inactive: -0.273 | – | inactive: 0.064 | – | inactive: 0.155 | inactive: 0.025 | inactive: 0.264 | inactive: -0.144 | inactive: -0.075 | inactive: 0.058 | inactive: -0.049 | inactive: -0.055 | inactive: 0.148 |
| VPS53 isoform 4 (UniProt Q5VIR6) | inactive: -0.095 | active: -0.358 | inactive: 0.022 | – | inactive: -0.128 | – | inactive: 0.061 | inactive: 0.06 | inactive: 0.041 | – | inactive: -0.102 | inactive: 0.017 | inactive: -0.009 | inactive: 0.033 | inactive: 0.007 | inactive: 0.016 | inactive: 0.029 | inactive: -0.056 | inactive: -0.028 | inactive: -0.001 |
| VDAC1 (UniProt C9JI87) | inactive: 0.097 | inactive: 0.08 | – | – | – | – | inactive: -0.247 | inactive: -0.087 | inactive: -0.007 | – | inactive: 0.034 | – | inactive: -0.135 | inactive: -0.334 | – | inactive: 0.21 | inactive: -0.027 | – | inactive: -0.189 | – |
| VTI1B (UniProt Q9UEU0) | inactive: -0.028 | inactive: -0.066 | inactive: -0.018 | – | active: -0.331 | – | inactive: 0.004 | inactive: 0 | inactive: -0.057 | – | inactive: 0.07 | inactive: -0.046 | inactive: -0.008 | inactive: -0.037 | inactive: -0.009 | inactive: 0.018 | inactive: 0.041 | inactive: 0.005 | inactive: -0.091 | inactive: 0.046 |
| WBP4 (UniProt O75554) | inactive: -0.004 | inactive: -0.045 | inactive: -0.089 | – | inactive: 0.218 | – | inactive: -0.031 | inactive: -0.046 | inactive: 0.069 | – | inactive: 0.012 | inactive: -0.02 | inactive: -0.015 | inactive: 0.003 | inactive: -0.036 | inactive: -0.058 | inactive: 0.113 | inactive: 0.012 | inactive: -0.019 | inactive: 0.045 |
| WDR91 (UniProt A4D1P6) | inactive: -0.067 | inactive: -0.247 | – | inactive: -0.048 | – | inactive: -0.142 | inactive: 0.091 | inactive: 0.15 | inactive: -0.074 | – | – | inactive: 0.118 | – | – | inactive: -0.047 | inactive: 0.141 | inactive: -0.079 | inactive: 0.035 | inactive: 0.083 | inactive: -0.034 |
| VDAC2 (UniProt Q5JSD2) | inactive: 0.265 | inactive: 0.034 | inactive: 0.181 | – | inactive: -0.035 | – | inactive: -0.257 | inactive: 0.013 | inactive: 0.049 | – | inactive: 0.109 | – | – | inactive: -0.204 | – | – | – | – | – | – |
| VWA8 (UniProt A3KMH1) | inactive: -0.027 | inactive: -0.071 | inactive: -0.094 | – | inactive: -0.034 | – | inactive: 0.008 | inactive: 0.003 | inactive: -0.005 | – | inactive: -0.003 | inactive: 0.072 | inactive: 0.006 | inactive: 0.048 | inactive: 0.056 | inactive: -0.01 | inactive: -0.012 | inactive: -0.017 | inactive: -0.013 | inactive: -0.049 |

An excerpt of these results, as tab-separated lines:
Target	log2 fold change [1]	log2 fold change (volasertib)	log2 fold change [2]	log2 fold change (rosiglitazone)	log2 fold change [3]	log2 fold change (alvocidib)	log2 fold change (rucaparib)	log2 fold change (encorafenib)	log2 fold change (epoxomicin)	log2 fold change [4]	log2 fold change (sotrastaurin)	log2 fold change (Tubastatin A)	log2 fold change [5]	log2 fold change [6]	log2 fold change [7]	log2 fold change [8]	log2 fold change (saracatinib)	log2 fold change (defactinib)	log2 fold change [9]	log2 fold change [10]
WBP4 (UniProt O75554)	inactive: -0.004	inactive: -0.045	inactive: -0.089	–	inactive: 0.218	–	inactive: -0.031	inactive: -0.046	inactive: 0.069	–	inactive: 0.012	inactive: -0.02	inactive: -0.015	inactive: 0.003	inactive: -0.036	inactive: -0.058	inactive: 0.113	inactive: 0.012	inactive: -0.019	inactive: 0.045
VDAC2 (UniProt Q5JSD2)	inactive: 0.265	inactive: 0.034	inactive: 0.181	–	inactive: -0.035	–	inactive: -0.257	inactive: 0.013	inactive: 0.049	–	inactive: 0.109	–	–	inactive: -0.204	–	–	–	–	–	–
